This is an account of results in publication PMC5967313.

By UniProt entry, the sequences of proteins in these tests, tags left out.
UniProt P61289: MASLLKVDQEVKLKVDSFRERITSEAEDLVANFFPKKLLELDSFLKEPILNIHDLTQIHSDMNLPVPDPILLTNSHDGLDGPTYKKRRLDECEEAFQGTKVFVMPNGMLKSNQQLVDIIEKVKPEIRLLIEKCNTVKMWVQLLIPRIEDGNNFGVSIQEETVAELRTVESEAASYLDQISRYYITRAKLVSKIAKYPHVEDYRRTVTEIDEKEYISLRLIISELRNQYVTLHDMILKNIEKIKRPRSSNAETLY
UniProt P49674: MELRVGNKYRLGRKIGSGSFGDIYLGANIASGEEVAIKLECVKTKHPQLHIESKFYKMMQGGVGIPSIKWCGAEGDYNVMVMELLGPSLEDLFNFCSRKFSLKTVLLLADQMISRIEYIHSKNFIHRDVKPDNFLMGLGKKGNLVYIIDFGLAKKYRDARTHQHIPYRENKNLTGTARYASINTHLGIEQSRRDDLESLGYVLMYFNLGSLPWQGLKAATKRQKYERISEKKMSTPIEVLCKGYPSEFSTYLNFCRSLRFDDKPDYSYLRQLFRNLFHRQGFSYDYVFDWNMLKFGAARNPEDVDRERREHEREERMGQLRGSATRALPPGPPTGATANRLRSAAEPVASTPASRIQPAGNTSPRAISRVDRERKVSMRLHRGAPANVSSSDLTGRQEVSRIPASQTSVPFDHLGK

In one experiment the target is Flag-tagged REGγ (UniProt P61289). As to the kind of experiment: co-IP; 293T cells transiently transfected with Flag-REGγ and HA-CK1ε; precipitation with Flag beads, western blot. In general terms: Immunoblotting shows a protein as a band on a membrane.
In another experiment the target is HA-tagged CK1ε (UniProt P49674). Put plainly: co-IP; 293T cells transiently transfected with Flag-REGγ and HA-CK1ε; reciprocal precipitation with HA beads, western blot.

No constants are given. Whether binding was seen depends on the method and setting. In cells and extracts the contact can be indirect. Some binding calls cover weakened binding; strength is not graded here.

As for “HA-tagged CK1ε (from UniProt P49674 1-416)”, the binding entry with Flag-tagged REGγ is given as “binds”.

In the case of “Flag-tagged REGγ (from UniProt P61289 1-254)”, the binding result with HA-tagged CK1ε was “binds”.
